In patent US20250002954A1, “Novel Compound, Use Thereof, and Method for Producing Same, and Compound-Containing Composition, Method for Producing 4-Trehalosamine, and Microorganism” (Microbial Chemistry Research Foundation, priority 2021, published 2025):

Legend:
[1] = test system: membrane proteins (EGFR, Na+/K+-ATP ase, TRPV6) of human ovarian cancer cells OVK18; test: Determination of membrane protein extraction efficiency by western blotting; conditions: test sample 0.05% or 0.5%
[2] = test system: human ovarian cancer cells OVK18; test: Evaluation of protein extraction efficiency (BCA protein concentration, SDS-PAGE); conditions: OVK18 cells in TBS, 1 hour at 4° C., test samples 0.005% to 1%
[3] = Sweetness test by professional panelists; conditions: for sweetness score, Average: 50 mg/100 μL aqueous solution, 10 μL licked, twelve professional panelists, water alone 0, sweetest 10, blind test

Molecule | membrane protein extraction efficiency [1] | sweetness score, Average [3] | further results
CCCCCCCCCCCN[C@@H]1C(CO)O[C@H](O[C@H]2OC(CO)[C@@H](O)C(O)C2O)C(O)C1O (stereo partly shown) [IMCTA-C11] | high efficiency of membrane protein extraction |  | 
CCCCCCCCCCCCO[C@@H]1O[C@H](CO)[C@@H](O[C@H]2O[C@H](CO)[C@@H](O)[C@H](O)[C@H]2O)[C@H](O)[C@H]1O [DDM, n-dodecyl-β-D-maltoside, reference compound] |  |  | protein extraction efficiency [2]: high extraction efficiency
CCCCCCCCCCCCCN[C@@H]1C(CO)O[C@H](O[C@H]2OC(CO)[C@@H](O)C(O)C2O)C(O)C1O (stereo partly shown) [IMCTA-C13] | high efficiency of membrane protein extraction |  | 
Triton X-100 |  |  | protein extraction efficiency [2]: high extraction efficiency
OC[C@H]1O[C@H](O[C@H]2O[C@H](CO)[C@@H](O)[C@H](O)[C@H]2O)[C@H](O)[C@@H](O)[C@@H]1O [trehalose, reference compound] |  | 5.5 | 
CCCCCCCCCCCCN[C@@H]1C(CO)O[C@H](O[C@H]2OC(CO)[C@@H](O)C(O)C2O)C(O)C1O (stereo partly shown) [IMCTA-C12] | high efficiency of membrane protein extraction |  | 
OC[C@H]1O[C@@](CO)(O[C@H]2O[C@H](CO)[C@@H](O)[C@H](O)[C@H]2O)[C@@H](O)[C@@H]1O [sucrose] |  | 9.83 | 
CCCCCCCCCCCCCCN[C@@H]1C(CO)O[C@H](O[C@H]2OC(CO)[C@@H](O)C(O)C2O)C(O)C1O (stereo partly shown) [IMCTA-C14] | high efficiency of membrane protein extraction |  | 
N[C@H]1[C@H](O)[C@@H](O)[C@@H](O[C@H]2O[C@H](CO)[C@@H](O)[C@H](O)[C@H]2O)O[C@@H]1CO [4-trehalosamine] |  | 7.04 | taste ([3]; sweetness test): clear sweetness, with no unpleasant flavor or odor

Some compounds share one wording; it may come from a single statement.
